# Source: PubChem BioAssay AID624297 (National Center for Advancing Translational Sciences (NCATS), 2012)
# Several values for one entry are separate records, joined by “and”; a condition that tells them apart may be missing. Equal values may be shown once. Among all 340,000 compounds or so, about 6,200 (1.8%) were called active. This list was built around the results that the source calls inconclusive (neither active nor inactive); the mix of calls is not that of the screen. Calls come from the whole dose curve; as a rule, active = well fitted activation curve with a large enough effect; inconclusive = small, poorly fitted or top-dose-only effect; inactive = no such curve, though single readings can be large or run the other way. Potencies of inconclusive entries are doubtful fits and often do not repeat.
# Test: A quantitative high throughput screen for small molecules that induce DNA re-replication in SW480 colon adenocarcinoma cells. For re-replication activation: % of control where 0% means no effect. Note: nearly all actives have a fitted effect of over 55% in size.
# Conditions: Hoechst DNA content imaging, 48 h; re-replication activation: at 46.1 µM (top of the series) unless noted
# In short: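 Treated cells incubate 48 hr (37 C, 5% CO2), are stained 40 min with Hoechst, and nuclear fluorescence is enumerated; a rise in nuclei with high DNA signal marks re-replication.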
# Potency is the fitted concentration of half-maximal effect.
Structure (SMILES),re-replication activation,Potency
CCN(CC)S(=O)(=O)c1cc(NC(=O)CO/N=C(\N)c2ccccc2Cl)ccc1C,inactive: -17.9%,
CCCNC(=O)c1cc(OC)c(OC)cc1[N+](=O)[O-],,"inconclusive: 6.51 µM [activator, single point]"
CN(Cc1cc(Br)cc(Br)c1N)C1CCCCC1,,"inconclusive: 33.5 µM [activator, partial curve, poor fit]"
COC(=O)C1=CN(C2CC2)C=C(C(=O)OC)C1c1ccccc1OC,,"inconclusive: 29.1 µM [activator, single point]"
COc1ccc(NC(=O)NCCCCc2ccccc2)cc1,inactive: 0.0558%,
Nc1c(C(=O)Nc2ccc(F)cc2)sc2nc(-c3ccco3)ccc12,,"inconclusive: 16.4 µM [activator, single point]"
Cc1ccc(S(=O)(=O)N2CCCC2CNC(=O)C(=O)Nc2ccc(F)cc2F)cc1 (stereo unspecified),,"inconclusive: 29.1 µM [activator, single point]"
CCc1nnc(N2C(=O)c3ccccc3C2(O)c2ccccc2)s1 (stereo unspecified),,"inconclusive: 18.4 µM [activator, single point]"
O=c1oc2cc(O)c(Cl)cc2c2ccccc12,inactive: -6.47%,
O=C1Nc2ccccc2O/C1=C\c1c(F)cccc1Cl,,"inconclusive: 29.1 µM [activator, single point]"
CC(C)=CCC/C(C)=C/C(N)=O,inactive: -5.36%,
CSc1nc(N(C)CCO)c2sc3nc(-c4ccco4)c4c(c3c2n1)CCC4,inactive: 2.96%,
COc1cc2cc(C#N)c(SCC(=O)Nc3cc(C)on3)nc2cc1OC,,"inconclusive: 0.82 µM [activator, full curve, poor fit]"
CCOc1ccc(N2CC(C(=O)NC3CCSC3=O)CC2=O)cc1 (stereo unspecified),,"inconclusive: 5.8 µM [activator, full curve]"
COc1cc(C(=O)N/C(=C\c2cn(C)c3ccccc23)C(=O)NCCCn2ccnc2)cc(OC)c1OC,,"inconclusive: 1.84 µM [activator, partial curve, poor fit]"
CC1CCCCC1NC(=O)CN1C(=O)c2ccccc2S1(=O)=O (stereo unspecified),inactive: -5.31%,
O=C(O)c1cccc(CSc2nnc(-c3cccnc3)o2)c1,inactive: -10.4%,
CCOC(=O)c1c(NC(=O)CC2Nc3ccccc3NC2=O)sc(C)c1C (stereo unspecified),,"inconclusive: 20.6 µM [activator, single point]"
Nn1cnnc1N/N=C/c1ccc(Cl)c([N+](=O)[O-])c1,,"inconclusive: 29.1 µM [activator, single point]"
COc1ccc(CN(C)S(=O)(=O)c2nnc(NC(=O)c3cccc(F)c3)s2)cc1OC,,"inconclusive: 16.4 µM [activator, partial curve, poor fit]"
Cc1cc(C)n(CC(C)Nc2nc3nonc3nc2N2CCCCC2)n1 (stereo unspecified),,"inconclusive: 2.31 µM [activator, partial curve, poor fit]"
COc1ccc(C2=NOC(C(=O)NCc3ccccn3)C2)cc1OC (stereo unspecified),inactive: 17%,
CC(C)c1ccc(NC(=O)c2cc(S(=O)(=O)NCC3COc4ccccc4O3)ccc2F)cc1 (stereo unspecified),,"inconclusive: 29.1 µM [activator, single point] and inconclusive: 20.6 µM [activator, single point]"
O=c1cc(-c2ccc(Cl)cc2)[nH]c2ccccc12,,"inconclusive: 18.4 µM [activator, partial curve, poor fit]"

# Among those listed so far, these have a nitro group on carbon.
Structure (SMILES),re-replication activation,Potency
CCCNC(=O)c1cc(OC)c(OC)cc1[N+](=O)[O-],,"inconclusive: 6.51 µM [activator, single point]"
Nn1cnnc1N/N=C/c1ccc(Cl)c([N+](=O)[O-])c1,,"inconclusive: 29.1 µM [activator, single point]"

# Following part.

Structure (SMILES),re-replication activation,Potency
Nc1nnc(-c2cn(-c3ccccc3)nc2-c2ccc(Cl)cc2)o1,,"inconclusive: 29.1 µM [activator, single point]"
Cc1ccc(S(=O)(=O)N2CCN(C(=O)COC(=O)COc3cccc(C(F)(F)F)c3)CC2)c(C)c1,,"inconclusive: 2.91 µM [activator, partial curve, poor fit]"
COc1cc2c(cc1NC(=O)CSc1nnc(COc3ccc(Cl)cc3)n1C)oc1ccccc12,,"inconclusive: 18.4 µM [activator, partial curve, poor fit]"
CC(=O)C(Cc1ccccc1)NC(=O)COc1ccc2c(c1)OCO2 (stereo unspecified),inactive: -6.64%,
O=C(Cc1ccccc1)Nc1nc2ccccc2[nH]1,,"inconclusive: 29.1 µM [activator, single point]"
O=C(Nc1cccc([N+](=O)[O-])c1)N1CCCCCC1,,"inconclusive: 5.17 µM [activator, single point]"
Cc1c(Cl)ccc2c(C(=O)NCCN3CCCCC3)cc(-c3ccccn3)nc12,,"inconclusive: 2.31 µM [activator, single point]"
CCOc1ccc(S(=O)(=O)Nc2ccc(C(=O)NCC(C)(C)N3CCOCC3)cc2)cc1,inactive: -1.94%,
COc1cccc(/C=N\NC(=O)c2ccc(Cn3cc(Br)c([N+](=O)[O-])n3)o2)c1O,,active: 0.731 µM
O=S(=O)([N-]c1nc2ccccc2nc1-[n+]1ccc(CCCc2ccccc2)cc1)c1cccs1,inactive: -10.3%,
Cc1ccc(C)c(N2CCN(CCCNC(=O)Cn3c(=O)c4cccn4c4cccnc43)CC2)c1,,"inconclusive: 2.91 µM [activator, single point]"
CCN1C[C@@H]2[C@@H]3C(=O)N(Cc4ccccc4)C(=O)[C@@H]3[C@](CC)(C(=O)OC)N2C1=NC1CCCCC1,inactive: -4.41%,
C=CCNC(=O)CN(Cc1ccccc1)S(=O)(=O)c1ccc(C)cc1,,"inconclusive: 23.1 µM [activator, single point]"
CCC(C)n1c(SCC(=O)Nc2cc(C)on2)nc2ccccc2c1=O (stereo unspecified),,"inconclusive: 25.9 µM [activator, single point]"
COc1cccc2[nH]c3ccccc3c(=O)c12,,"inconclusive: 29.1 µM [activator, single point]"
COc1ccc(C(=O)NC(=S)N2CCCc3ccccc32)cc1OC,inactive: -8.5%,
CCCCCOc1ccc(CSC2=NCCN2)cc1[N+](=O)[O-],,active: 5.8 µM
Cc1cc(-c2ccc(S(=O)(=O)N(C)c3ccc(C)c(C)c3)s2)on1,,"inconclusive: 3.66 µM [activator, full curve, poor fit]"
COc1ccc(C(=O)N2CCNC(=O)C2)cc1S(=O)(=O)Nc1ccc(Br)cc1,inactive: 5.02%,
Cc1ccc(NC(=S)NC2CCSc3ccccc32)cc1 (stereo unspecified),inactive: 28.7%,
CC(=O)NC1=NN(C(C)=O)C(C)(c2ccco2)S1 (stereo unspecified),,"inconclusive: 11.6 µM [activator, partial curve, poor fit]"
CCc1nn(CC(=O)NCCCN2CCc3ccccc3C2)c(=O)c2cc3sccc3n12,,"inconclusive: 20.6 µM [activator, partial curve, poor fit]"
Cc1cccc(-n2c(SCC(=O)N3CC(=O)Nc4ccccc43)nc3ccccc3c2=O)c1C,,"inconclusive: 18.4 µM [activator, single point]"
CCOC(=O)c1cc2oc(C(c3nnnn3C3CCCCC3)N3CCOCC3)cc2[nH]1 (stereo unspecified),,"inconclusive: 20.6 µM [activator, single point]"

Structure (SMILES),re-replication activation,Potency
COCCNC(=O)CSc1ccc(Cl)cc1,,"inconclusive: 18.4 µM [activator, single point]"
COC(=O)c1ccc(CNC(=O)CNC(=O)c2sc3ccccc3c2Cl)cc1,,"inconclusive: 29.1 µM [activator, single point]"
Cc1cc(C)nc(N/C(=N\S(=O)(=O)Cc2ccccc2)Nc2ccccc2Br)n1,,"inconclusive: 20.6 µM [activator, partial curve, poor fit]"
COc1ccc(CNC(=O)CCCCCNC(=O)N2CCn3c2nc2ccccc23)cc1,inactive: 1.97%,
Cc1nc(N2CCN(c3ccccn3)CC2)c2c(C)c(C(=O)Nc3ccc(F)c(Cl)c3)sc2n1,,"inconclusive: 29.1 µM [activator, single point]"
CCCCC(=O)Nc1ccc(C(=O)Nc2cc(C(F)(F)F)ccc2Cl)cc1,,"inconclusive: 18.4 µM [activator, single point]"
COCCn1c(Br)nc2c1c(=O)n(C)c(=O)n2C,inactive: 1.28%,
CCN1CCN(C(=O)c2ccc3c(Cl)c4c(nc3c2)CCCC4)CC1,,"inconclusive: 6.51 µM [activator, partial curve, poor fit]"
C=CCc1ccccc1OCC(O)CN1CCOCC1 (stereo unspecified),,active: 11.6 µM
Cc1c(Cl)cccc1NC(=O)Nc1ccc(C(N)=O)cc1,inactive: 9.7%,
O=C(CN1CCC(C(=O)c2ccc(F)cc2)CC1)Nc1ccc(F)cc1,inactive: -1.34%,
CCN(C[C@H]1N[C@@](C)(C(=O)OC)[C@H]2C(=O)N(Cc3ccccc3)C(=O)[C@@H]12)C(=O)COC,,"inconclusive: 0.92 µM [activator, full curve, poor fit]"
CC(SCc1ccccc1)C(=O)Nc1ccccc1 (stereo unspecified),,"inconclusive: 7.31 µM [activator, single point]"
O=C(CNC(=O)c1ccc2c(c1)OCO2)Nc1ncccc1O,inactive: -48.8%,
Cc1ccc(Nc2nc(-c3c(C)nc4ncccn34)cs2)cc1,,active: 0.058 µM
COc1ccccc1NC(=S)NCCc1ccccc1,inactive: 3.26%,
COCCCn1c(SCc2cccc(C(F)(F)F)c2)nc2cc(OC)c(OC)cc2c1=N,inactive: -5.81%,
COC(=O)c1ccc(/C=C(/NC(=O)c2ccccc2)C(=O)N2CCOCC2)cc1,,"inconclusive: 3.26 µM [activator, partial curve, poor fit]"
Brc1ccc(Nc2ncnc3[nH]ncc23)cc1,inactive: -3.3%,
CCc1ccc(C2C3=C(CCCC3=O)OC3=C2C(=O)CCC3)cc1,inactive: 22.7%,
COc1cccc(Oc2ccc(C(F)(F)F)cc2NC(=O)c2cccc(F)c2)c1,inactive: -2.75%,
CCOC(=O)[C@H]1[C@H]2COc3ccc(Cl)cc3[C@@H]2N2C(=O)CN(Cc3ccco3)C(=O)[C@@]12C,inactive: -18.7%,
Cc1nn(-c2ccccc2)c(Cl)c1CN(C(=O)CCl)c1ccc(Cl)cc1,,active: 3.26 µM

# Three structures from above, sorted by SMILES length, low to high.
Structure (SMILES),re-replication activation,Potency
Cc1c(Cl)cccc1NC(=O)Nc1ccc(C(N)=O)cc1,inactive: 9.7%,
Cc1ccc(Nc2nc(-c3c(C)nc4ncccn34)cs2)cc1,,active: 0.058 µM
CCOC(=O)[C@H]1[C@H]2COc3ccc(Cl)cc3[C@@H]2N2C(=O)CN(Cc3ccco3)C(=O)[C@@]12C,inactive: -18.7%,
